{"source": "the supplement of paper PMC5949888", "note": "± gives the standard deviation of the averaged measurements. Most values lie at the floor of the assay. Slopes are relative: functional sequences can read slightly below zero."}
{"test_system": "Saccharomyces cerevisiae PS128 hsf1 delta, HSF1(1-493) fusion", "experiment": "growth estimate (transactivation domain function in HSF1 fusion, heat-shock survival) (a.u. (slope of normalised read count over time)); higher = stronger growth at 37°C, i.e. more transactivation activity", "conditions": "library: random library"}
{"substance": "RRTGRFNSVGVMMGTYRLGW", "growth estimate": "< -0.25"}
{"substance": "RRTKHFGSIRTGQKVHIANS", "growth estimate": "< -0.25"}
{"substance": "RRVCSHHSVIDEAILRDIRG", "growth estimate": "< -0.25"}
{"substance": "RRVDRFCLMVSCCVMGLRAA", "growth estimate": "< -0.25"}
{"substance": "RRVFAKQWGR", "growth estimate": "< -0.25"}
{"substance": "RRVLATGLSEWHTCAESGCH", "growth estimate": "< -0.25"}
{"substance": "RRVVGPDVTLCSGQQACGVH", "growth estimate": "< -0.25"}
{"substance": "RRYAQRELAGSFDGQWS", "growth estimate": "< -0.25"}
{"substance": "RRYLLRYIGTANGRGIVATC", "growth estimate": "< -0.25"}
{"substance": "RRYVRRGRVCTLK", "growth estimate": "< -0.25"}
{"substance": "RSA", "growth estimate": "-0.248 ± 0.003"}
{"substance": "RSARNCQSGMAGTGDRSRIG", "growth estimate": "< -0.25"}
{"substance": "RSARRFQAA", "growth estimate": "< -0.25"}
{"substance": "RSCGCELKSSKVLQYDSLGP", "growth estimate": "< -0.25"}
{"substance": "RSCRARAGIAVYADSRGNVG", "growth estimate": "< -0.25"}
{"substance": "RSCRIPAR", "growth estimate": "< -0.25"}
{"substance": "RSDLRSQLGMYQHWVGGHAT", "growth estimate": "< -0.25"}
{"substance": "RSDQGSFGQGMSGRIRTHES", "growth estimate": "< -0.25"}
{"substance": "RSDRNKF", "growth estimate": "< -0.25"}
{"substance": "RSECVLTIGKRREFPSLHCE", "growth estimate": "< -0.25"}
{"substance": "RSEEIAKVLRGEKRPGYFSQ", "growth estimate": "< -0.25"}
{"substance": "RSEGSQMQPRGV", "growth estimate": "< -0.25"}
{"substance": "RSELVFRSANIWRRNVVIRG", "growth estimate": "< -0.25"}
{"substance": "RSFLQVV", "growth estimate": "< -0.25"}
{"substance": "RSGA", "growth estimate": "< -0.25"}
{"substance": "RSGAAMTYGRIVVPRTPYHR", "growth estimate": "< -0.25"}
{"substance": "RSGCDCLISMSGSGD", "growth estimate": "< -0.25"}
{"substance": "RSGGHRSPVSRWRVGIDRDV", "growth estimate": "< -0.25"}
{"substance": "RSGIVLAIANRVWWGEKFIV", "growth estimate": "< -0.25"}
{"substance": "RSGKSGGFSTAE", "growth estimate": "< -0.25"}
{"substance": "RSGPRDGRKLRRNSAQSDPS", "growth estimate": "< -0.25"}
{"substance": "RSGSSVWLVLFCYRGKPDTH", "growth estimate": "< -0.25"}
{"substance": "RSGTNCERHMED", "growth estimate": "< -0.25"}
{"substance": "RSGTTARWDKS", "growth estimate": "< -0.25"}
{"substance": "RSGVGMFEIGVNKVFPGSAG", "growth estimate": "< -0.25"}
{"substance": "RSGVGPYDRKTGWQRNRDPT", "growth estimate": "< -0.25"}
{"substance": "RSGVSDTYVSLV", "growth estimate": "< -0.25"}
{"substance": "RSIIWYMVIRTRPFGATFRN", "growth estimate": -0.214}
{"substance": "RSIPMGPRCITGNE", "growth estimate": -0.186}
{"substance": "RSIRLSGVLHRYEGRTSFFA", "growth estimate": "< -0.25"}
{"substance": "RSIVLIREDTIRVQVTYIQS", "growth estimate": "< -0.25"}
{"substance": "RSKIDSEGYVTFLLSQGPWN", "growth estimate": "< -0.25"}
{"substance": "RSLAGSASPAGGK", "growth estimate": "< -0.25"}
{"substance": "RSLAQTSRYAQLPQSTSVTI", "growth estimate": "< -0.25"}
{"substance": "RSLAWREPWKHVSLVLSPPG", "growth estimate": "< -0.25"}
{"substance": "RSLCDKVCNARLHDIIRLSF", "growth estimate": "< -0.25"}
{"substance": "RSLEVQRVTRGGSFPVYPYA", "growth estimate": -0.214}
{"substance": "RSLFCNVVEVW", "growth estimate": "< -0.25"}
{"substance": "RSLGARVLRPMYAA", "growth estimate": "< -0.25"}
{"substance": "RSLGCHLVYIYSRKVCSGIV", "growth estimate": "< -0.25"}
{"substance": "RSLHRAGNV", "growth estimate": "< -0.25"}
{"substance": "RSLRNIGP", "growth estimate": "< -0.25"}
{"substance": "RSLRSEVYKSKVTVPRHEGR", "growth estimate": "< -0.25"}
{"substance": "RSLSCARRTPQLAREVPFDL", "growth estimate": -0.246}
{"substance": "RSLTTTWYVLG", "growth estimate": "< -0.25"}
{"substance": "RSMTAGVARHPKLVGEAGLG", "growth estimate": "< -0.25"}
{"substance": "RSNDV", "growth estimate": "< -0.25"}
{"substance": "RSNEFECGLLEYCNACDICR", "growth estimate": "< -0.25"}
{"substance": "RSPAFAVIWSPPSFGLRLWA", "growth estimate": "< -0.25"}
{"substance": "RSPRGSFHISRGMNRCGHSE", "growth estimate": "< -0.25"}
{"substance": "RSQDAPLYCRG", "growth estimate": "< -0.25"}
{"substance": "RSRCRQRTRWTEIPRETCLM", "growth estimate": "< -0.25"}
{"substance": "RSREFRLRQHKLETSVFVLR", "growth estimate": "< -0.25"}
{"substance": "RSRLSGNIGFRVLNRLRCIV", "growth estimate": "< -0.25"}
{"substance": "RSRRDLGLPLGGCVSLRSVH", "growth estimate": -0.0187}
{"substance": "RSRRNRIRVHTQNTFPLT", "growth estimate": "< -0.25"}
{"substance": "RSRYCASTCTEQSDGVVNLS", "growth estimate": "< -0.25"}
{"substance": "RSS", "growth estimate": "< -0.25"}
{"substance": "RSSGDVGPGSHGVR", "growth estimate": "< -0.25"}
{"substance": "RSSGGLGAGGNEEVCGTLDS", "growth estimate": "< -0.25"}
{"substance": "RSSGLFSDRYLVFNRRERRL", "growth estimate": "< -0.25"}
{"substance": "RSSGSNLWILKYF", "growth estimate": "< -0.25"}
{"substance": "RSSLCISRSQSNDQTCFRVH", "growth estimate": "< -0.25"}
{"substance": "RSSMDR", "growth estimate": -0.25}
{"substance": "RSSPEMAMEPAPDTNFLSTR", "growth estimate": "< -0.25"}
{"substance": "RSSQRLKSR", "growth estimate": "< -0.25"}
{"substance": "RSSRLGQR", "growth estimate": "< -0.25"}
{"substance": "RSSSKTGRDYKLYSHARKSK", "growth estimate": "< -0.25"}
{"substance": "RSSSSC", "growth estimate": "< -0.25"}
{"substance": "RSSSSVPKRRHKRLSAENLS", "growth estimate": "< -0.25"}
{"substance": "RSSVCDVEKRYNRCFDQSTT", "growth estimate": "< -0.25"}
{"substance": "RSTFVPGVALSARGRGLVER", "growth estimate": -0.246}
{"substance": "RSTGLLFEGLHIAQPMANEI", "growth estimate": "< -0.25"}
{"substance": "RSTLFHPLRML", "growth estimate": "< -0.25"}
{"substance": "RSTMSQHIPYLFGRISSQEE", "growth estimate": "< -0.25"}
{"substance": "RSTRF", "growth estimate": "< -0.25"}
{"substance": "RSTRREDATFSLPMVYLTD", "growth estimate": "< -0.25"}
{"substance": "RSTSMHNIPNVFAQRCLSPP", "growth estimate": "< -0.25"}
{"substance": "RSTVLRNTRWGHTG", "growth estimate": "< -0.25"}
{"substance": "RSTVVWDINHVTRMLDWDFR", "growth estimate": -0.2}
{"substance": "RSVFA", "growth estimate": -0.243}
{"substance": "RSVGMQRGQALSVCVQAPLQ", "growth estimate": "< -0.25"}
{"substance": "RSVICAVILRVHRRRPRMSK", "growth estimate": "< -0.25"}
{"substance": "RSVKPSTLRYSKYRTPVKVQ", "growth estimate": "< -0.25"}
{"substance": "RSVQFATSQRAWEGLCTWDV", "growth estimate": -0.222}
{"substance": "RSVQPSRVSLNDMPKSIREP", "growth estimate": -0.25}
